Library screen at single concentrations

The chains behind the UniProt entries cited, without tags or fusion partners.
UniProt I6X8D2, whole entry: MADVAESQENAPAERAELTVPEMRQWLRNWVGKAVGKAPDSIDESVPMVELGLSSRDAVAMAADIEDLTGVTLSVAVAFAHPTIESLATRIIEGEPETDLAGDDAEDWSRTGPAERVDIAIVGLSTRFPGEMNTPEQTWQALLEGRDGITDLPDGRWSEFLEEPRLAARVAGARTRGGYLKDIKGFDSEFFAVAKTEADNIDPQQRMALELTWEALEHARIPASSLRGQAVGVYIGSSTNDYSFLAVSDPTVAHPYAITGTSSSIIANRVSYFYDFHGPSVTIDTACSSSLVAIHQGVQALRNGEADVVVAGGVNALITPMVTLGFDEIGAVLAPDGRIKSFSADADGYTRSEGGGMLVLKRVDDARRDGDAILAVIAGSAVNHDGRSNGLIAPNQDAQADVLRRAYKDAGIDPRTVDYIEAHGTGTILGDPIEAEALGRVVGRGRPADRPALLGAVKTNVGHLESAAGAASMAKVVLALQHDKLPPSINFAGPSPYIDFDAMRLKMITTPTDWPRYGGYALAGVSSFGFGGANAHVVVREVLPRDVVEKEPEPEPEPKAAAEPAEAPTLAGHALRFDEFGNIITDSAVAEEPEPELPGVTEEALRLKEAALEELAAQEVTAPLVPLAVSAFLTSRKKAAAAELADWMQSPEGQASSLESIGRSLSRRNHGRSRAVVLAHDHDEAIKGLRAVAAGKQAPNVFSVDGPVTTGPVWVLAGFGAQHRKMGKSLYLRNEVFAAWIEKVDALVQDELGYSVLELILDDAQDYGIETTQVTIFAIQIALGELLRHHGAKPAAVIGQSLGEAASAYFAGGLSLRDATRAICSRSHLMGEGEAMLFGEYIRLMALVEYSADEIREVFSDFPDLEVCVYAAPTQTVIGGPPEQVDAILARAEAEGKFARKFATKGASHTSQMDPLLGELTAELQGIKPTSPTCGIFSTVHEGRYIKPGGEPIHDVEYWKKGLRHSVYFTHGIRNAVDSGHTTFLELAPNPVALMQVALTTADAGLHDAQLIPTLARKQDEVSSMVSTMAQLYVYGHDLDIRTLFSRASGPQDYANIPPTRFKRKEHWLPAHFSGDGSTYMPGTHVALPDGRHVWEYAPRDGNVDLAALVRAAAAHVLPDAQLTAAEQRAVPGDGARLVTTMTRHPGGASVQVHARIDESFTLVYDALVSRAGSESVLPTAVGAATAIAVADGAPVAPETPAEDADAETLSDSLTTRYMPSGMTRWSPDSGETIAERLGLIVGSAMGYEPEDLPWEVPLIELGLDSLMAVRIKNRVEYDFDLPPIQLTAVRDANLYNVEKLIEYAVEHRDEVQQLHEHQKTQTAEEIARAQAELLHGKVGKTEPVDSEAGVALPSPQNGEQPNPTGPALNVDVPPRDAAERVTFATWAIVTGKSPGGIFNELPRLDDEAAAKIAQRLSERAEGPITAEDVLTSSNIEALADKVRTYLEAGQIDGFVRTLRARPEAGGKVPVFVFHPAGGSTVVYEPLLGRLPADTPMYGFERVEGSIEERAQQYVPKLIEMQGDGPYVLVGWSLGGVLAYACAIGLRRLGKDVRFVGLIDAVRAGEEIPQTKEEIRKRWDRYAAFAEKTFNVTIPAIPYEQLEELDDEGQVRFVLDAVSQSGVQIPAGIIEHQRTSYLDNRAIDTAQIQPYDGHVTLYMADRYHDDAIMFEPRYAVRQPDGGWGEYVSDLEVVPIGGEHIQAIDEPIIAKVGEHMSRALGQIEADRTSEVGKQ
UniProt P9WNZ1, whole entry: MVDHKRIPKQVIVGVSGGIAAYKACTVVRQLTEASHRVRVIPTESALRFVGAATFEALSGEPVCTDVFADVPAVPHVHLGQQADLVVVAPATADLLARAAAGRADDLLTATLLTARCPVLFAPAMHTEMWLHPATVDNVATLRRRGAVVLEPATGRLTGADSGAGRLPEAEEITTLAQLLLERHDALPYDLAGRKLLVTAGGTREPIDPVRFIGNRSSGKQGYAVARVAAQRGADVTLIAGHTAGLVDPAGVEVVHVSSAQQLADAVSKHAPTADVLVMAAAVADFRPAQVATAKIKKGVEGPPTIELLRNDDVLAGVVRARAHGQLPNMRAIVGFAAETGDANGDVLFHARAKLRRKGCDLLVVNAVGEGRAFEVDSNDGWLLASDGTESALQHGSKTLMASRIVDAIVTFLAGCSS
UniProt P9WFT3, whole entry: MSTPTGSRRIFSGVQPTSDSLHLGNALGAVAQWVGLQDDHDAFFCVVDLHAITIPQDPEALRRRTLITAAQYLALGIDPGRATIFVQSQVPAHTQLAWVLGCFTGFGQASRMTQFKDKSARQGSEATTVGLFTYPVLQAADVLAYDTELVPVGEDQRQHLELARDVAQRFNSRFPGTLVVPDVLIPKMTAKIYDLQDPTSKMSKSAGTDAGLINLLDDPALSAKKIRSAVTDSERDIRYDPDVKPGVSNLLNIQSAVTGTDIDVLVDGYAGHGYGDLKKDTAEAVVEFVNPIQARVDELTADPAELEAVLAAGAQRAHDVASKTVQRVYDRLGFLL

Data taken from ChEMBL document CHEMBL3988442, “University of Dundee, Small-Polar-MMV Screening Library” (2021).

Pks13 thioesterase: 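Enzyme assay of the thioesterase domain of polyketide synthase 13; the read-out is not stated. Target: Polyketide synthase Pks13, Mycobacterium tuberculosis (UniProt I6X8D2). Tested at 30 µM. The record gives no direction; the compounds picked for IC50 retests had high values, so higher reads as stronger inhibition. Of about 67,000 compounds tested this way, about 300 (0.46%) reached 50% or more in at least one test.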
CoaBC: 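Enzyme assay of CoaBC with a phosphate dye (Biomol Green) read at 650 nm. Target: Coenzyme A biosynthesis protein CoaBC, Mycobacterium tuberculosis (UniProt P9WNZ1). Tested at 30 µM. Higher reads as stronger inhibition, judged from the few compounds that gave an IC50. Most strong results did not repeat in a second test. Of about 67,000 compounds tested this way, about 40 (0.06%) reached 50% or more in at least one test.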
Leishmania in macrophages: 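Cell assay of Leishmania donovani living inside macrophages; the read-out is not stated. Compounds at 30 µM. The record gives no direction; compounds that gave an IC50 in retests scored well above the rest, so higher reads as stronger inhibition. About 69,000 compounds were tested under these conditions; 1.5% (about 1,000) showed 50% or more at least once.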
MtTrpRS: 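Tryptophan-tRNA ligase, Mycobacterium tuberculosis (UniProt P9WFT3). Enzyme assay of tryptophanyl-tRNA synthetase; the read-out is not stated. Concentration: 10 µM. Higher most likely means stronger inhibition; the record gives no direction and few retests gave an IC50. About 65,000 compounds were tested under these conditions; 0.098% (about 64) showed 50% or more at least once.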

Each number is a percent effect as filed.
The controls that fix the scale are not given in the record; negative values are as filed.
The compounds are a random part of those screened.
Two or more numbers in one place are separate tests of the same structure; such repeats can differ widely.

With CCOC(C)c1noc(CN2CCCN(c3ccccn3)CC2)n1 (centres undefined) the screen gave Pks13 thioesterase: 0.8736%; CoaBC: 1.449%; Leishmania in macrophages: 27.68%; MtTrpRS: 1.273%. For Cc1cc(C(=O)N2CCC3(CCC(=O)N(CC(N)=O)C3)CC2)ccc1O the result was Pks13 thioesterase: -17.06%; CoaBC: 3.061%; Leishmania in macrophages: 11.98%; MtTrpRS: 2.928%. For COCCN(Cc1ccncc1)C(=O)C1COc2c(cccc2OC)C1 (centres undefined) the result was CoaBC: -3.931%; Leishmania in macrophages: 18.5%; MtTrpRS: 0.07468%. With COc1ccc2c(ccn2CCC(=O)NCc2ccc(C(=O)O)cc2)c1 the screen gave Pks13 thioesterase: -8.131%; CoaBC: 2.058%; Leishmania in macrophages: 30.53%; MtTrpRS: 4.666%. COc1ccc(N2CCCN(CC(=O)N3CCNC(=O)C3)CC2)cc1 gave Pks13 thioesterase: -12.02%; CoaBC: -3.629%; Leishmania in macrophages: 20.01%; MtTrpRS: -4.237%. O=C(O)c1nnn(-c2ccc(Cl)c(C(F)(F)F)c2)c1-c1ccncc1 gave Pks13 thioesterase: -0.2046%; CoaBC: 3.038%; Leishmania in macrophages: 4.917% & 12.18%; MtTrpRS: 1.704%. Result for O=C(O)C(F)(F)F.O=C(O)C(F)(F)F.c1ccc(CN2CCC3(CC2)CC(Oc2cccnc2)C3)nc1 was Leishmania in macrophages: 5.172%. CN(CC(=O)N(C)C1CC1)C1CCN(c2ccc(Cl)cc2)CC1 gave Pks13 thioesterase: 0.4113%; CoaBC: -0.495%; Leishmania in macrophages: -2.382%; MtTrpRS: -1.037%.

NCc1cn(CC2CCCN(C(=O)CC3=CCCCC3)C2)nn1 (centres undefined) gave Pks13 thioesterase: -14.97%; CoaBC: 1.527%; Leishmania in macrophages: 12.66% & -15.44%; MtTrpRS: 3.333%. Result for C[C@H](c1ccc(F)cc1)n1c(C2CCC2)n[nH]c1=O was Pks13 thioesterase: -8.583%; CoaBC: 1.845%; Leishmania in macrophages: 19.36%; MtTrpRS: 1.207%. With O=C(Nc1cccc2c1CCCC2)c1cccnc1N1CCCNCC1 the screen gave Pks13 thioesterase: 19.55%; CoaBC: 3.641%; Leishmania in macrophages: 28.29%. CCOc1ccc(C(=O)N(C)Cc2nccn2CC(F)(F)F)cc1 gave Pks13 thioesterase: -12.53%; CoaBC: 5.402%; Leishmania in macrophages: 3.454%; MtTrpRS: 3.562%. CC(CNC(=O)Nc1ccc(F)cc1-n1cccc1)N1CCOCC1 (centres undefined) gave Pks13 thioesterase: -17.23%; CoaBC: 3.299%; Leishmania in macrophages: 25.87%; MtTrpRS: -0.1937%. For Cn1cc(C(=O)NCc2cn3c(n2)CN(Cc2ccccn2)CC3)cn1.O=C(O)C(F)(F)F.O=C(O)C(F)(F)F the result was Leishmania in macrophages: 26.85%. With O=C(c1ccc(CN2CCCCC2)cc1)N1CCCC1c1cccs1 (centres undefined) the screen gave Pks13 thioesterase: -11.57%; CoaBC: -3.559%; Leishmania in macrophages: -47.92%; MtTrpRS: -1.147%. Result for Cc1noc([C@H]2C[C@H]3CN(C(=O)Cc4ccsc4)CC[C@H]3O2)n1 was Pks13 thioesterase: -10.9%; CoaBC: 9.664%; MtTrpRS: -0.1744%.

COCC(=O)NC[C@@]1(COc2cnccn2)C[C@@H](O)[C@@H](O)C1 read Pks13 thioesterase: 1.229%; CoaBC: 8.055%; MtTrpRS: -4.5%. Cn1ccnc1C(=O)N1CCC2(CCN2c2ncccn2)C1 (centres undefined) gave Pks13 thioesterase: -5.618%; CoaBC: 3.659%. COc1ccc(C[C@H]2CN(C(=O)c3cc(C)no3)CC[C@H]2OC)cc1 read Pks13 thioesterase: -30.9%; CoaBC: 1.416%; Leishmania in macrophages: 7.467%; MtTrpRS: -2.762%. Result for CCc1nc(C2CCCN(C(=O)c3ccccc3F)C2)no1 (centres undefined) was Pks13 thioesterase: -8.613%; CoaBC: 3.827%; Leishmania in macrophages: 26.81%; MtTrpRS: 2.302%. Cn1nc2c(cc1=O)CN(Cc1coc(-c3ccccc3)n1)CC2 read Pks13 thioesterase: 8.281%; CoaBC: 2.212%; Leishmania in macrophages: 18.82%; MtTrpRS: -4.379%. Result for CN(Cc1nc2c(cnn2C)c(=O)[nH]1)Cc1ccc(F)cc1F was Pks13 thioesterase: -31.52%; CoaBC: 8.549%; Leishmania in macrophages: 10.3%; MtTrpRS: 0.8166%. CCCc1nccn1-c1ccncc1 gave Pks13 thioesterase: -2.667%; Leishmania in macrophages: -10.62%; MtTrpRS: -1.651%. COCCN1CCN(C(=O)c2ccncc2F)Cc2cccnc21 gave Pks13 thioesterase: -9.212%; CoaBC: 2.826%; Leishmania in macrophages: -10.24%; MtTrpRS: -2.211%.

N#Cc1c(Cl)nsc1NCCN1CCOCC1 read Pks13 thioesterase: 7.405%; CoaBC: -5.293%; Leishmania in macrophages: 8.741%; MtTrpRS: -4.289%. For Cc1cc(NC(=O)CCNC(C)(C)c2nc(C)c(C)s2)no1 the result was Pks13 thioesterase: 10.38%; CoaBC: 2.404%; Leishmania in macrophages: 0.9936%; MtTrpRS: 2.283%. Cc1cc(C)cc(OCC(=O)N2CCC2)c1 read Pks13 thioesterase: -5.632%; CoaBC: 4.684%; Leishmania in macrophages: 6.69%; MtTrpRS: 2.447%. O=C(NCc1nc[nH]n1)c1cc(COc2ccccc2F)[nH]n1 read Pks13 thioesterase: -3.349%; CoaBC: 9.202%; Leishmania in macrophages: 27.87%; MtTrpRS: -2.714%. For O=C(NC1CCCC1)O[C@H]1COCCN(c2nc3ccccc3o2)C1 the result was Pks13 thioesterase: -35.27%; CoaBC: -3.837%; Leishmania in macrophages: -25.92%; MtTrpRS: -1.431%. Cc1cccc(C)c1OC1CCN(Cc2ccn(C)c(=O)c2)CC1 read Pks13 thioesterase: 0.02125%; CoaBC: 2.968%; Leishmania in macrophages: -0.9965%; MtTrpRS: -0.3895%. For CCOc1ccc(C(F)(F)F)cc1NC(=O)N1CCNC(=O)C1 the result was Pks13 thioesterase: -14.61%; CoaBC: -6.542%; Leishmania in macrophages: 30.69%; MtTrpRS: 3.482%. Cc1ccc(-c2ccc(C(=O)NCC(N)=O)c(F)c2)cc1 read Pks13 thioesterase: 0.2467%; CoaBC: -2.801%; Leishmania in macrophages: -14.13%; MtTrpRS: -5.583%.

For reference, 4 entries once more:

| compound | Pks13 thioesterase | CoaBC | Leishmania in macrophages | MtTrpRS |
|---|---|---|---|---|
| `O=C(NC1CCCC1)O[C@H]1COCCN(c2nc3ccccc3o2)C1` | -35.27 | -3.837 | -25.92 | -1.431 |
| `Cc1cc(C)cc(OCC(=O)N2CCC2)c1` | -5.632 | 4.684 | 6.69 | 2.447 |
| `CC(CNC(=O)Nc1ccc(F)cc1-n1cccc1)N1CCOCC1` (centres undefined) | -17.23 | 3.299 | 25.87 | -0.1937 |
| `COc1ccc(C[C@H]2CN(C(=O)c3cc(C)no3)CC[C@H]2OC)cc1` | -30.9 | 1.416 | 7.467 | -2.762 |